Assay results taken from the supplement of paper PMC12578635.
± gives the standard deviation of the averaged measurements. The list shows a part of the results. Single values are uncertain, as repeats are few or missing.

The molecules below were run on RAW 264.7 macrophages infected with S. aureus JE2-lux (assay: host macrophage viability (CellTiter-Fluor) relative to DMSO vehicle; higher = more viable host cells). Conditions: 10 µM; treatment time 4 h; gentamicin 50 µg/ml.

Row | Structure (SMILES) | host macrophage viability
1 | COC(=O)c1ccc(CSc2nc3c(c(=O)n2-c2ccccc2)SCC3)o1 | 99.2%
2 | Cn1c(=O)c2c(nc(Br)n2CC(=O)c2ccccc2)n(C)c1=O | 117%
3 | O=c1[nH]c2ccccc2n1CCCOc1ccc(Cl)cc1 | 112%
4 | CN1CCOc2ccc(NC(=O)CN3C(=O)c4ccccc4C3=O)cc2C1=O | 116%
5 | CC1=NN(c2ccccc2)C(=N)/C1=N\Nc1cccnc1 | 112%
6 | Cc1cc2ccccc2n2c(=O)n(CCNC(=O)C3CC(=O)N(C)C3)nc12 (configuration not stated) | 114%
7 | O=C(Nc1ccc(Cl)cc1)c1ccc(-c2nc3ccccc3s2)s1 | 122%
8 | COc1ccc(-c2nnc3n2N=C(c2cccc([N+](=O)[O-])c2)CS3)cc1 | 128%
9 | Cc1occc1-c1nnc(SCC(=O)NCCc2nc3ccccc3[nH]2)o1 | 123%
10 | COc1ccc(C(=O)CSc2nc3[nH]ncc3c(=O)[nH]2)cc1 | 115%
11 | CC(CNc1nccn(-c2ccc3c(c2)OCO3)c1=O)c1ccccc1 (configuration not stated) | 116%
12 | COc1cc(NS(=O)(=O)c2ccc(NC(=O)c3ccc(Cl)cc3Cl)cc2)ncn1 | 119%
13 | COc1ccc(-n2cnc3c(C)nc(-n4nc(C)cc4C)nc32)cc1 | 98.4%
14 | COc1ccccc1OCC(=O)Nn1cnc2c(cnn2-c2ccc(C)cc2)c1=O | 128%
15 | COCCCN1CCn2c(nc3cc(NC(=O)c4ccccc4OC)ccc32)C1 | 96.2%
16 | COc1cccc(C(=O)OCn2nnc3ccccc3c2=O)c1OC | 109%
17 | O=C(O)CC1SC(Nc2ccc(O)cc2)=NC1=O (configuration not stated) | 116%
18 | CSc1nnc(C)c(=O)n1COC(=O)/C=C/c1ccc2c(c1)OCO2 | 113%
19 | Cc1cc(OC(=O)c2ccc(S(=O)(=O)N3CCOCC3)cc2)c([N+](=O)[O-])c(=O)[nH]1 | 120%
20 | CCCc1cc(C(=O)N2CCCC2c2cccs2)no1 (configuration not stated) | 112%
21 | COc1ccc(Cl)cc1NC(=O)C(C)n1nc(-c2cc(C)oc2C)cc(N)c1=O (configuration not stated) | 105%
22 | CCc1nnc(NC(=O)CSc2ncnc3c2cnn3-c2ccc(Cl)cc2)s1 | 110%
23 | Cc1ccc(NC(=O)Cn2nnc(-c3c[nH]c4ccccc34)n2)c(C)c1 | 117%

Part of the list above, set out differently.
Row,Structure (SMILES),host macrophage viability
1,COC(=O)c1ccc(CSc2nc3c(c(=O)n2-c2ccccc2)SCC3)o1,99.2%
4,CN1CCOc2ccc(NC(=O)CN3C(=O)c4ccccc4C3=O)cc2C1=O,116%
5,CC1=NN(c2ccccc2)C(=N)/C1=N\Nc1cccnc1,112%
6,Cc1cc2ccccc2n2c(=O)n(CCNC(=O)C3CC(=O)N(C)C3)nc12 (configuration not stated),114%
7,O=C(Nc1ccc(Cl)cc1)c1ccc(-c2nc3ccccc3s2)s1,122%
9,Cc1occc1-c1nnc(SCC(=O)NCCc2nc3ccccc3[nH]2)o1,123%
10,COc1ccc(C(=O)CSc2nc3[nH]ncc3c(=O)[nH]2)cc1,115%
11,CC(CNc1nccn(-c2ccc3c(c2)OCO3)c1=O)c1ccccc1 (configuration not stated),116%
15,COCCCN1CCn2c(nc3cc(NC(=O)c4ccccc4OC)ccc32)C1,96.2%
16,COc1cccc(C(=O)OCn2nnc3ccccc3c2=O)c1OC,109%
17,O=C(O)CC1SC(Nc2ccc(O)cc2)=NC1=O (configuration not stated),116%
18,CSc1nnc(C)c(=O)n1COC(=O)/C=C/c1ccc2c(c1)OCO2,113%
20,CCCc1cc(C(=O)N2CCCC2c2cccs2)no1 (configuration not stated),112%
21,COc1ccc(Cl)cc1NC(=O)C(C)n1nc(-c2cc(C)oc2C)cc(N)c1=O (configuration not stated),105%
22,CCc1nnc(NC(=O)CSc2ncnc3c2cnn3-c2ccc(Cl)cc2)s1,110%
23,Cc1ccc(NC(=O)Cn2nnc(-c3c[nH]c4ccccc34)n2)c(C)c1,117%

Going on with the list:

Row | Structure (SMILES) | host macrophage viability
24 | O=C(Nc1ccc(Br)cc1)C1CCN(C(=O)NCc2ccccc2)CC1 | 116%
25 | Cc1ccc(/C=C(/C#N)C(=O)Nc2sc3c(c2C(N)=O)CCCC3)o1 | 106 ± 9%
26 | CCn1c(SCC(=O)Nc2cc(C)on2)nc2c(c1=O)SC(C)C2 (configuration not stated) | 105%
27 | CCc1ccc(N2C(=O)SC(Nc3ccc(S(N)(=O)=O)cc3)C2=O)cc1 (configuration not stated) | 113%
28 | CCOC(=O)c1sc2nc(NC(=O)c3ccccc3OC)sc2c1C | 122%
29 | CCOC(=O)c1cnc(SCC(=O)c2ccc(F)cc2)nc1N | 109%
30 | O=C(COC(=O)c1cc(O)nc2ccccc12)c1ccc(Cl)cc1 | 117%
31 | O=C1c2ccncc2C(=O)N1CNc1ccc(Br)cc1 | 117%
32 | CCCCC(=O)N1CCN(c2nn3c(NC(C)(C)C)c(-c4cccc(C)c4)nc3s2)CC1 | 139%
33 | COc1ccc2cc(CN(C)Cc3n[nH]c4c3CCCC4)c(OC)nc2c1 | 109%
34 | Cc1ccc(CNC(=O)c2cnc3c(c(C)nn3-c3ccccc3)c2NCc2ccc(Cl)cc2)o1 | 76%
35 | CCC(=O)Nc1nc(-c2ccc3c(c2)OCCO3)cs1 | 120%
36 | O=C(CN1C(=O)CC(c2ccccc2)Sc2ccccc21)Nc1ccc(F)cc1F (configuration not stated) | 110 ± 8.4%
37 | CCc1nc(-c2csc(S(=O)(=O)N3CCC(C(=O)N4CCc5ccccc5C4)CC3)c2)no1 | 115%
38 | O=C(OCn1nnc2ccccc2c1=O)c1cccs1 | 96%
39 | COc1ccc(CC(=O)N2CCC(c3nnc(C(=O)Nc4ccccc4C)s3)CC2)cc1OC | 98.1%
40 | O=C(CSc1nc(-c2ccccc2Cl)ns1)Nc1nccs1 | 105 ± 3.9%
41 | O=C(/C=C/c1ccc2c(c1)OCO2)NCCc1csc2nc(-c3ccc(F)cc3)nn12 | 127%
42 | CC(C)N1CCn2c(nc3cc(NS(C)(=O)=O)ccc32)C1 | 106%
43 | COc1cc(/C=N/n2cnnc2)ccc1OC(=O)c1ccncc1 | 92.8%
44 | CC(=O)c1cccc(NC(=O)CSc2nc(=O)n(N3CCN(C)CC3)c3c2CCCC3)c1 | 108%
45 | N#Cc1c(NC(=O)c2nc3ccccc3s2)sc2c1CCN(Cc1ccccc1)C2 | 92.2%
46 | CC(=O)c1[nH]c(C)c(C(=O)NCCn2nc3c(C)cc4ccc(C)cc4n3c2=O)c1C | 114%

Row | Structure (SMILES) | host macrophage viability
47 | O=C(CSc1nnc2[nH]c(=O)ccn12)Nc1ccc(Br)cc1 | 105%
48 | O=C(CSc1ncnc2c1oc1ccccc12)Nc1ccc([N+](=O)[O-])cc1 | 129%
49 | O=C(NCC1COC2(CCCCC2)O1)Nc1ccc(Cl)cc1 (configuration not stated) | 112%
50 | O=C(NCCCN1CCCC1=O)c1ncoc1-c1ccc(F)cc1 | 109%
51 | CCOc1ccc(-c2cc(C(=O)Nc3cc(C)on3)no2)cc1 | 122%
52 | COc1cc(C(=O)Oc2coc(CSc3nc(C)cc(C)n3)cc2=O)c([N+](=O)[O-])cc1OC | 115%
53 | Cc1cccc(OCCCN2C(=O)C(=O)c3cc(Br)cc(C)c32)c1 | 119%
54 | O=C1NC(=O)c2cc(S(=O)(=O)N(CCO)CCO)cc3cccc1c23 | 112%
55 | Cc1ccc(NC(=O)CN2C(=O)/C(=C\c3cccs3)SC2=S)cc1C | 107%
56 | CC12CC(NC(=O)N1c1cccc(F)c1)c1cc([N+](=O)[O-])ccc1O2 (configuration not stated) | 98.5%
57 | COc1ccc(OC)c(NC(=O)CSc2nc3ccccc3c(=O)n2C)c1 | 118%
58 | Cc1nn(-c2ccc3nncn3n2)c(C)c1Sc1nnc(N)s1 | 117%
59 | O=C(CSc1nc(=O)n2ccccc2n1)N1CCc2ccccc21 | 121%
60 | Cc1[nH]c2nc(CNc3ccccc3F)nn2c(=O)c1Cc1ccccc1 | 97.6%
61 | O=[N+]([O-])c1ccc2sc(SCc3nc4ncccn4c3Br)nc2c1 | 115%
62 | CCS(=O)(=O)c1ccccc1C(=O)Nc1ccc2nc(C)sc2c1 | 120%
63 | O=C(Nc1nc2ccc3ccccc3c2s1)c1ccc(S(=O)(=O)N2CCc3ccccc32)cc1 | 118 ± 4.5%
64 | Cc1cccc(N2CCN(c3nccnc3SCC(=O)Nc3ccccc3Cl)CC2)c1C | 118%
65 | COC(=O)c1cc(Nc2nc(C)nc3sc4c(c23)CCC4)cc(C(=O)OC)c1 | 138%
66 | Cc1ccc(Cc2nnc(SCC(=O)Nc3cccc(Cl)c3C)n(N)c2=O)cc1 | 97.9%
67 | CCCCC(=O)Nc1cnc(N2CCN(c3ccccn3)CC2)c(C(=O)O)c1 | 87.6%
